Consider 1 molecule from article PMC9017425, “Integrative Analysis of Pharmacokinetic and Metabolomic Profiles for Predicting Metabolic Phenotype and Drug Exposure Caused by Sotorasib in Rats” (Frontiers in Oncology, 2022).

The subject of this data set is plasma metabolites. As to the kind of experiment: Transversal pharmacometabolomics of sotorasib in rat plasma (pre-dose vs post-dose). In kind it is in vivo, Sprague–Dawley rats. As to conditions: rats, oral 10 mg/kg. How it is done: For metabolic profiling analysis, the HPLC-MS/MS system (Spark Holland; API 5500, SCIEX, Concord, Canada) was adopted for targeted metabolomic analysis. The chromatography columns (Waters BEH, HSS T3) and elution solvent (gradient elution) were all evaluated and employed according to our previous study ([18]). The column temperature was set at 20°C with an injection volume of 5 μl. The water and organic phases (ACN/IPA = 7:2, v/v) contained 0.1% formic acid, and gradient elution was achieved within 27 min. The detailed optimized MRM parameters are shown in Supplementary Table S1 and in a previous study ([18]). For the analysis of the metabolic characteristics, a one-step protein precipitation method was also employed. Briefly, an aliquot of 50 μl plasma was added with 10 μl IS mixture (eight ISs, 400 ng/ml) and 140 μl precipitation solution (−20°C methanol). Afterward, the mixture was vortexed for 2 min and centrifuged (13,500 rpm, 10 min at 4°C). The upper solutions were injected into the HPLC-MS/MS system for analysis. A total of 289 metabolites, which contained amino acids, bile acids, and vitamins, were included in the metabolomics method being considered. All biologically active metabolites can be quantitated within 27 min. The calculation linearity ranged from 0.2 to 5,000 ng/ml, which provided powerful capability for the successful quantitation of low-abundance compounds. For the longitudinal PM of sotorasib, the same plasma samples were utilized before (0 h, pre-dose) and after administration (post-dose, until 8 h). For the transversal PM, raw metabolomic data were divided into two parts: before (pre-dose) and after (post-dose) administration. The metabolomic profiling and trajectory effects of sotorasib were investigated and analyzed using multiple variable statistical analysis methods. Raw data files were processed and checked using Analyst 1.6.3 and MultiQuant 3.0.1 (SCIEX, Concord, Canada). The concentrations of the analytes were calculated according to the calibration curve. Pharmacokinetic parameters, such as C max and the area under the curve (AUC), were calculated using Phoenix WinNonLin software (Pharsight 8.3, Mountain View, CA, USA). Pearson’s correlation was employed to investigate the correlation between the metabolomic data and PK parameters using IBM SPSS 26.0 (Armonk, NY, USA). SIMCA-P software (v14.1; Umetric, Umeå, Sweden) was employed to build mathematical models, including unsupervised principal component analysis (PCA), supervised orthogonal projection to latent structures discriminant analysis (OPLS-DA), and partial least squares (PLS). Compounds with values of variable importance in the projections (VIP) >1 and statistical significance of p < 0.05 were selected for further identification and metabolic pathway analysis. […]

The structures appear in SMILES notation.

As to `C=CC(=O)N1CCN(c2nc(=O)n(-c3c(C)ccnc3C(C)C)c3nc(-c4c(O)cccc4F)c(F)cc23)[C@@H](C)C1` [Sotorasib], the “number of significantly changed metabolites between pre- and post-dose” value (plasma) is given as 67. Also, for the setting “plasma, most significant: taurine and hypotaurine metabolism”, the “number of metabolic pathways disturbed” value is 19. In addition, the “number of metabolites downregulated after dosing” value (VIP >1, FC <0.5, p < 0.05) is 11. For the same molecule, where the note is “VIP >1, FC >2, p < 0.05”, the “number of metabolites upregulated after dosing” value is “six”.
